Source: the supplement of paper PMC10849652
Some of the results follow.

Chains of the proteins cited; added tags and fusions are not shown. Lines headed by an entry give the natural chain unless they say otherwise; changes in a name come on top.
UniProt Q06203, whole entry, looked up: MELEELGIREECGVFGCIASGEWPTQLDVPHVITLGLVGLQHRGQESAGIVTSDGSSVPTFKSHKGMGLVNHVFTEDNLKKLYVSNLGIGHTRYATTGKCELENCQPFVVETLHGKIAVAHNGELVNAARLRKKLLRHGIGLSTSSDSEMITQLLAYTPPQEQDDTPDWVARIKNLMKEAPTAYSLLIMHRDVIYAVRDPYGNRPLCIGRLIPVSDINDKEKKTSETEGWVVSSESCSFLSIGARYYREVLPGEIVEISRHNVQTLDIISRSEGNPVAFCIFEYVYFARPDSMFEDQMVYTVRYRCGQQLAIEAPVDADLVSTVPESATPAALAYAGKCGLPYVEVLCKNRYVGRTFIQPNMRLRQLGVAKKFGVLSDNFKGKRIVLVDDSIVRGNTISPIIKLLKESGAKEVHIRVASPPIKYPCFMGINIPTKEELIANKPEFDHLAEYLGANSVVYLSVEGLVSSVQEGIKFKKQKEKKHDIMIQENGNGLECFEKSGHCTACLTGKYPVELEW
UniProt Q8N490: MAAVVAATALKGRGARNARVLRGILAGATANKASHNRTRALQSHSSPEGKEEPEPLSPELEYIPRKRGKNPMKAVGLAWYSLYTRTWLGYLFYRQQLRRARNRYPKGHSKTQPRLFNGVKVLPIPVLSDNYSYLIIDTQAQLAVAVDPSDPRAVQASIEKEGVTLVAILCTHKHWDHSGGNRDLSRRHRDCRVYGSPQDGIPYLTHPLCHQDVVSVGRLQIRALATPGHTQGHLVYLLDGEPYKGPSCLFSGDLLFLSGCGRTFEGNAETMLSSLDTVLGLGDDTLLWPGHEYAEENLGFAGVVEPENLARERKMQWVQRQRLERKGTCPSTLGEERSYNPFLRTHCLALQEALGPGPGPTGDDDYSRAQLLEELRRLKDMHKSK
UniProt Q96CD2: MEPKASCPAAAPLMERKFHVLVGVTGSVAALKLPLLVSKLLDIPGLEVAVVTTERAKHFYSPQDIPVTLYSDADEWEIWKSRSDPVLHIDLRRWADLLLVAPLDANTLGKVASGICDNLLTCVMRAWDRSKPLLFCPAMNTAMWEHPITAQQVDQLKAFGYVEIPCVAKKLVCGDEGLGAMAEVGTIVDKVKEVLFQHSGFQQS
UniProt P55058, whole entry, looked up: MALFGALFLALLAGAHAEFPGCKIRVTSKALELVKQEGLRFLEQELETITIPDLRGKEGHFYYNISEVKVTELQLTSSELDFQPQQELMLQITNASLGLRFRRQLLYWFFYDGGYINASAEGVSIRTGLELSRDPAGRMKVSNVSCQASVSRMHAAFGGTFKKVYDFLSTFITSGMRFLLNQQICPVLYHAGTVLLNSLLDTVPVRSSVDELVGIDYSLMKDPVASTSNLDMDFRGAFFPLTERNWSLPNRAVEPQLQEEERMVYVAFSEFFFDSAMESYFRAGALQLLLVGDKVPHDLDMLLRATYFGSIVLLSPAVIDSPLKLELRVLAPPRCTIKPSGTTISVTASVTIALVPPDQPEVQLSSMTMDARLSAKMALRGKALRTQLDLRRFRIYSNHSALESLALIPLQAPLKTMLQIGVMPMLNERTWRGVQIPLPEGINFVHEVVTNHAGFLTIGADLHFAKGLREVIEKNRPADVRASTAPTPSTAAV
UniProt P00491: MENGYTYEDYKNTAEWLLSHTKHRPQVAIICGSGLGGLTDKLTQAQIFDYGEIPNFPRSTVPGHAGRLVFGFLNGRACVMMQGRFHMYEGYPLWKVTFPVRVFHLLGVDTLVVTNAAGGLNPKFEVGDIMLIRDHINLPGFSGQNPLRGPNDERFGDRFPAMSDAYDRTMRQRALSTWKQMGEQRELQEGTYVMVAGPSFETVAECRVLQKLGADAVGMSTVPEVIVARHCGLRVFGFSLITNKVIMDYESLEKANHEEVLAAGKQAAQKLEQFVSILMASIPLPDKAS
UniProt Q15054: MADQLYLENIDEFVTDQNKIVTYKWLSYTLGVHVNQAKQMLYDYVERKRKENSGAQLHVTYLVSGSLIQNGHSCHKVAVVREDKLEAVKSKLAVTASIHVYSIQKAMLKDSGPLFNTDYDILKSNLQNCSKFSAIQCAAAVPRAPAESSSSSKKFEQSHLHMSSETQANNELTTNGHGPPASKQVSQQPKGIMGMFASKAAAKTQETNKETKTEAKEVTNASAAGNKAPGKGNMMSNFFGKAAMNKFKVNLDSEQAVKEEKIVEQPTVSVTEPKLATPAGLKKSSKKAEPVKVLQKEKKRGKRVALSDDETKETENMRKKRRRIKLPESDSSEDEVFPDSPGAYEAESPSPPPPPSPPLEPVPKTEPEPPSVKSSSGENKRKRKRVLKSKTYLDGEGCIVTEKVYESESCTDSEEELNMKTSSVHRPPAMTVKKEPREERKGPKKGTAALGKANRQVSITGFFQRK
UniProt P45877: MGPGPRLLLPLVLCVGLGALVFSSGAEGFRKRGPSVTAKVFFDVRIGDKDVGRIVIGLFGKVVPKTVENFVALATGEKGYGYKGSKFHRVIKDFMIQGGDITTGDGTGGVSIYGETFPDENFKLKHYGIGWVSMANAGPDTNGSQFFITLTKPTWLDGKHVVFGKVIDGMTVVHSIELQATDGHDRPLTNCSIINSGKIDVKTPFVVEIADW
UniProt Q9NR33: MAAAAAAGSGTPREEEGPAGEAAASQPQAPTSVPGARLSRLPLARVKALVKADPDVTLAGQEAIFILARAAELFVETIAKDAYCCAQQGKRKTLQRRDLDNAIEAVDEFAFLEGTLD
UniProt P29590: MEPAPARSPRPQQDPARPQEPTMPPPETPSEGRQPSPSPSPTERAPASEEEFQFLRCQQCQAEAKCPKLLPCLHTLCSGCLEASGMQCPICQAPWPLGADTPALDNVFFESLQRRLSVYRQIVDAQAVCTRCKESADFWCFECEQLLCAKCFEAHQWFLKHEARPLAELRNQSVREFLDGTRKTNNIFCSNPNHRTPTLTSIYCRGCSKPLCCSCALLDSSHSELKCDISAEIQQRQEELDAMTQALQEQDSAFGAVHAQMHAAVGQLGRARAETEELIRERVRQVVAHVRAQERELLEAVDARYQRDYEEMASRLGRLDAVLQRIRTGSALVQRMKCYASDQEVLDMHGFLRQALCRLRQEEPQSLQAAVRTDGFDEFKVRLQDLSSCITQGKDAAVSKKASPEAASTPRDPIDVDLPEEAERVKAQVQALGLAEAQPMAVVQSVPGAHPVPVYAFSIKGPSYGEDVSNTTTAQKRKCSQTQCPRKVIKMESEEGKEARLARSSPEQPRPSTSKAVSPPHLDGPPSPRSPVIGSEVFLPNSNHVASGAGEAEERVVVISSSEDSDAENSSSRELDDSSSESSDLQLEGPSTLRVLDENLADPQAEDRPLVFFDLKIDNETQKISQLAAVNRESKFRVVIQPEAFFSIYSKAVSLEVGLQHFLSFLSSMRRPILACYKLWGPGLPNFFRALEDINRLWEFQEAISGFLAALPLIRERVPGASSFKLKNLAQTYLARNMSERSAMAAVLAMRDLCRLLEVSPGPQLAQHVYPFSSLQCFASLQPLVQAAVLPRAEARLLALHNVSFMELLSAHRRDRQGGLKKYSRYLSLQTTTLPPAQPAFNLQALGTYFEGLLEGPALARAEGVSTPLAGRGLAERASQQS
UniProt O15305: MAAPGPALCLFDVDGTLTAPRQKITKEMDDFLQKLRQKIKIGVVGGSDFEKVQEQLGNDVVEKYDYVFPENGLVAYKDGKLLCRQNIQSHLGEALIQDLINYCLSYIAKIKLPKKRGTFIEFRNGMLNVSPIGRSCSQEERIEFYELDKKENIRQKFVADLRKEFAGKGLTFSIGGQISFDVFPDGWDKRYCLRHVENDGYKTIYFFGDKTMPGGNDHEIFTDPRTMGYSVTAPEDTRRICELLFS
UniProt Q99575: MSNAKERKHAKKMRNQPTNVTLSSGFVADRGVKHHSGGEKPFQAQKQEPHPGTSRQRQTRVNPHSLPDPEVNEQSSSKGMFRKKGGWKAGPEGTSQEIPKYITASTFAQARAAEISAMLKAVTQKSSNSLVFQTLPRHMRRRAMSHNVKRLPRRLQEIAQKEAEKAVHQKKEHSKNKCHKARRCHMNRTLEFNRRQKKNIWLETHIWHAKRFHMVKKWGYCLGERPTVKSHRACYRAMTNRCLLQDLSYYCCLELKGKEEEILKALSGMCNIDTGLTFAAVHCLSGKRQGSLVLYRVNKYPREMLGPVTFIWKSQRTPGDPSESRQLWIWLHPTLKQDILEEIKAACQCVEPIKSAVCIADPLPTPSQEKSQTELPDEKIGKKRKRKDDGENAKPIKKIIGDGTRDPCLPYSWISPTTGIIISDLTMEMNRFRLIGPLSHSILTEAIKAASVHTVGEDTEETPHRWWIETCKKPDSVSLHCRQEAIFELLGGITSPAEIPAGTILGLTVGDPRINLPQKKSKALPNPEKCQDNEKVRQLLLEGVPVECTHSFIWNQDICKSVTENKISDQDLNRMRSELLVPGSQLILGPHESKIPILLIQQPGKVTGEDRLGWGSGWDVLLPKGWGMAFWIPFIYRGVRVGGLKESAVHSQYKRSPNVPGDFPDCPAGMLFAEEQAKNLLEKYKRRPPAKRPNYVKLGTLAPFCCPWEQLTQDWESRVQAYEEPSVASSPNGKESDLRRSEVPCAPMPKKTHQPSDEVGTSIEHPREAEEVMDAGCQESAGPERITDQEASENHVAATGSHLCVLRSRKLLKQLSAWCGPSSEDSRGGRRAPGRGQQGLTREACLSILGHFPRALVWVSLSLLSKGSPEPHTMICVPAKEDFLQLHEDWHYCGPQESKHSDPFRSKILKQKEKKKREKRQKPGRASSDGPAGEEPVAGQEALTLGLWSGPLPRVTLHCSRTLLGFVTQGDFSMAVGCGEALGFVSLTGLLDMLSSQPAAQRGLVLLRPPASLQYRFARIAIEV
UniProt O95602, whole entry, looked up: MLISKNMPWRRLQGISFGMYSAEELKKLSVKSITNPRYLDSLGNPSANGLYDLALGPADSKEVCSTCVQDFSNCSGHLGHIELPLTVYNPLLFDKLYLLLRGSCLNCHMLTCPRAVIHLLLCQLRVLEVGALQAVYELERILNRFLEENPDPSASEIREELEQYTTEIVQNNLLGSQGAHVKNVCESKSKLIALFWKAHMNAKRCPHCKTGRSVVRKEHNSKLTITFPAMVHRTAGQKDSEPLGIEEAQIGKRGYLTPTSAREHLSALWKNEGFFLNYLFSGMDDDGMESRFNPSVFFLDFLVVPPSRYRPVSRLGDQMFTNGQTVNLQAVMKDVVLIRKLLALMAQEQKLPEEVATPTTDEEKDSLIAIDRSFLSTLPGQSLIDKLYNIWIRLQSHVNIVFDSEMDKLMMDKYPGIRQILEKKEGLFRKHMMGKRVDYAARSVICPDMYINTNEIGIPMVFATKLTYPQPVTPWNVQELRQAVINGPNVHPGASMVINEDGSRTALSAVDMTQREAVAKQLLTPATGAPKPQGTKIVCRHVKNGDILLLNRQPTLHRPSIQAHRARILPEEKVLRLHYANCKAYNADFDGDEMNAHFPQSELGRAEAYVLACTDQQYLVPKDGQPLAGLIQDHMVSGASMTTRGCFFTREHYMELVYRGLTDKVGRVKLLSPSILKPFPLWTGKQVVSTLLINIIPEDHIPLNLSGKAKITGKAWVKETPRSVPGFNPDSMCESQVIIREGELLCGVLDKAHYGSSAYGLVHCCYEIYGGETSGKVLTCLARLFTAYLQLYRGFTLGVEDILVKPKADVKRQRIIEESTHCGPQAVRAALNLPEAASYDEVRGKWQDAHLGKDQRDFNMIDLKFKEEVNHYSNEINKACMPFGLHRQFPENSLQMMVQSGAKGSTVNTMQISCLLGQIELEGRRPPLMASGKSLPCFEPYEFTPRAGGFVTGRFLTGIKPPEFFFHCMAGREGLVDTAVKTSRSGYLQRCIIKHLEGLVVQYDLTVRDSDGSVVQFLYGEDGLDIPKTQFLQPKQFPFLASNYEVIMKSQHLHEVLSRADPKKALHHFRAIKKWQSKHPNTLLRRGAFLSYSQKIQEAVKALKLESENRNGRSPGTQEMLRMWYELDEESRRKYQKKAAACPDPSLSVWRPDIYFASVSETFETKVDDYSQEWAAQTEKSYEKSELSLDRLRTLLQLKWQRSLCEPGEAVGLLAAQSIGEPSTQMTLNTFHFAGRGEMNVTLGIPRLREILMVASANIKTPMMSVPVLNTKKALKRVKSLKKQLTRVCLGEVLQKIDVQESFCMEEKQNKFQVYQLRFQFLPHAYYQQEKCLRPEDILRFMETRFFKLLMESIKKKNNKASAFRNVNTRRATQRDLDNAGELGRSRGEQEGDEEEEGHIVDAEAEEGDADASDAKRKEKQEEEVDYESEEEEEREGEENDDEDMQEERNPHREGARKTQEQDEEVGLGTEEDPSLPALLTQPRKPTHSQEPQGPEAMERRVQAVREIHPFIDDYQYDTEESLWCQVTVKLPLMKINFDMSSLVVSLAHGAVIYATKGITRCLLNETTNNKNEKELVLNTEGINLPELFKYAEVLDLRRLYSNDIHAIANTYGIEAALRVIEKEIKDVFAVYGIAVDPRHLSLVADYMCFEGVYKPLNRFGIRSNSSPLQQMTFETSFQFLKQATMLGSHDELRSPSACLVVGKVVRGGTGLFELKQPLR

Columns and labels:
Assay in all cases: log2 fold change, soluble protein after heating vs DMSO (PISA); higher = thermal stabilisation; K562 cells, 10 uM, 30 min; active = over 0.2 and 3.5 SD of the protein, either way, in both replicates (recomputed)
[1] = compound: CC[C@@H]1C(=O)N(C)c2cnc(Nc3ccc(C(=O)NC4CCN(C)CC4)cc3OC)nc2N1C1CCCC1
Method in brief: (§1)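 Soluble protein was defined as the supernatant after 21,000xg for 90 min. It came from K562 cells at 2×10^6 cells/mL given 10 μM compound for 30 min, heated in aliquots for 3 min across 48°C-58°C, pooled, and extracted in PBS with 0.5% NP-40 at 4°C, and was quantified by TMTpro 16plex LC-MS/MS with equalised channel sums. Thermal stability against control samples, from duplicates, is reported as log2 fold change.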

volasertib = compound: CC[C@@H]1C(=O)N(C)c2cnc(Nc3ccc(C(=O)N[C@H]4CC[C@H](N5CCN(CC6CC6)CC5)CC4)cc3OC)nc2N1C(C)C [volasertib]
Method in brief: as §1

[2] = compound: CC[C@H](C)N1C=C(C2=C(C=C(C=C21)C3=CN=C(C=C3)N4CCNCC4)C(=O)NCC5=C(C=C(NC5=O)C)C)C
Method in brief: as §1

epoxomicin = compound: CC[C@H](C)[C@@H](C(=O)N[C@@H]([C@@H](C)O)C(=O)N[C@@H](CC(C)C)C(=O)[C@]1(CO1)C)NC(=O)[C@H]([C@@H](C)CC)N(C)C(=O)C [epoxomicin]
Method in brief: as §1

[3] = compound: CCn1c(C(=O)N(C2CC2)C2CC2)cc2c3c(ncn3C)c(Nc3cc(C)n(C)n3)nc21
Method in brief: as §1

[4] = compound: CCn1cc(-c2ccnc3[nH]c(-c4cccc(CN(C)C)c4)cc23)c(-c2ccc(NC(=O)N(C)C)cc2)n1
Method in brief: as §1

[5] = compound: CN(C)CC(=O)Nc1ccc2[nH]c(=O)c3ccccc3c2c1
Method in brief: as §1

rosiglitazone = compound: CN(CCOC1=CC=C(C=C1)C[C@H]2C(=O)NC(=O)S2)C3=CC=CC=N3 (racemic) [rosiglitazone]
Method in brief: as §1

[6] = compound: CN1C2=C(C3=C1C(=O)N(N=C3)CC4=CC(=CC=C4)N)SC(=C2)S(=O)C
Method in brief: as §1

[7] = compound: CN1CCC(CNc2ccc3ncc(-c4cccc(OC(F)(F)F)c4)n3n2)CC1
Method in brief: as §1

Target | log2 fold change [1] | log2 fold change (volasertib) | log2 fold change [2] | log2 fold change (epoxomicin) | log2 fold change [3] | log2 fold change [4] | log2 fold change [5] | log2 fold change (rosiglitazone) | log2 fold change [6] | log2 fold change [7]
PMF1 (UniProt Q6P1K2) | inactive: -0.007 | inactive: -0.23 | inactive: -0.05 | inactive: 0.046 | inactive: -0.159 | inactive: 0.075 | inactive: -0.009 | inactive: 0.072 | inactive: 0 | inactive: -0.088
PPAT (UniProt Q06203) | inactive: 0.028 | inactive: 0.058 | inactive: -0.02 | inactive: -0.012 | inactive: 0.006 | inactive: -0.01 | inactive: -0.016 | inactive: 0.019 | inactive: -0.062 | inactive: 0.018
POLD2 (UniProt P49005) | inactive: -0.123 | inactive: -0.238 | inactive: 0.043 | inactive: 0.125 | inactive: 0.003 | inactive: -0.002 | inactive: 0.038 | inactive: 0.05 | inactive: -0.05 | inactive: -0.066
PNKD isoform 2 (UniProt Q8N490) | inactive: 0.04 | inactive: 0.037 | inactive: -0.014 | inactive: 0.017 | inactive: -0.032 | inactive: -0.035 | inactive: -0.003 | inactive: -0.048 | inactive: 0.097 | inactive: -0.075
PPCDC (UniProt Q96CD2) | inactive: 0.093 | inactive: -0.123 | inactive: -0.108 | inactive: -0.033 | inactive: -0.029 | inactive: -0.063 | inactive: 0 | inactive: 0.047 | inactive: -0.087 | inactive: 0.028
PLEKHM2 (UniProt Q8IWE5) | inactive: -0.127 | inactive: -0.177 | inactive: 0.009 | inactive: 0.037 |  | inactive: -0.175 | inactive: 0.003 |  | inactive: -0.04 | active: -0.357
POMP (UniProt Q9Y244) | inactive: 0.097 | inactive: -0.049 | inactive: 0.008 | active: 0.581 |  | inactive: 0.021 | inactive: -0.018 |  | inactive: -0.02 | inactive: -0.004
PLTP (UniProt P55058) | inactive: 0.254 | inactive: 0.097 | inactive: -0.108 | inactive: -0.05 | inactive: 0.008 | inactive: -0.268 | inactive: -0.093 |  | inactive: -0.088 | inactive: 0.155
PNPLA6 (UniProt Q8IY17) | inactive: -0.086 | inactive: 0.141 | inactive: -0.001 | inactive: -0.049 | inactive: -0.109 |  | inactive: 0.05 | inactive: 0.171 | inactive: 0.121 | 
PNP (UniProt P00491) | inactive: 0.034 | inactive: 0.064 | inactive: -0.024 | inactive: -0.01 | inactive: 0.041 | inactive: -0.006 | inactive: -0.018 | inactive: -0.004 | inactive: -0.053 | inactive: 0
PPID (UniProt Q08752) | inactive: -0.076 | active: -0.366 | inactive: 0.132 | inactive: 0.026 |  | inactive: -0.058 | inactive: 0.087 |  | inactive: -0.015 | inactive: -0.173
POLD3 (UniProt Q15054) | inactive: -0.147 | inactive: -0.101 | inactive: 0.008 | inactive: 0.126 |  | inactive: -0.037 | inactive: 0.067 |  | inactive: 0.051 | inactive: -0.118
PPIL1 (UniProt Q9Y3C6) | inactive: 0.014 | inactive: -0.051 | inactive: 0.01 | inactive: -0.024 |  | inactive: 0.02 | inactive: -0.014 |  | inactive: 0.049 | inactive: 0.018
POLR2I (UniProt P36954) | inactive: 0.209 | inactive: 0.232 | inactive: 0.055 | inactive: 0.007 |  | inactive: -0.208 | inactive: -0.107 |  | inactive: -0.009 | inactive: 0.202
PMM1 (UniProt Q92871) | inactive: -0.029 | inactive: -0.239 | inactive: -0.024 | inactive: -0.002 |  | inactive: 0.08 | inactive: 0.009 |  | inactive: -0.061 | inactive: -0.018
PPIC (UniProt P45877) | inactive: 0.038 | inactive: -0.461 | inactive: 0.061 | inactive: 0.076 | inactive: 0.013 | inactive: 0.002 |  | inactive: -0.115 | inactive: 0.176 | inactive: -0.047
POLE4 (UniProt Q9NR33) | inactive: 0.032 | inactive: -0.147 | inactive: -0.017 | inactive: 0.088 | inactive: -0.052 | inactive: -0.006 | inactive: 0.065 | inactive: 0.006 |  | inactive: -0.007
PPIL4 (UniProt Q8WUA2) | inactive: -0.024 | active: -0.253 | inactive: 0.043 | inactive: 0.011 |  | inactive: 0.047 | inactive: 0.007 |  | inactive: 0.022 | inactive: -0.098
POLR3K (UniProt Q9Y2Y1) | inactive: -0.077 | inactive: 0.056 | inactive: -0.018 | inactive: 0.067 |  | inactive: 0.038 | inactive: -0.048 |  | inactive: -0.012 | inactive: -0.01
PML (UniProt P29590) | inactive: -0.051 | inactive: -0.136 | inactive: 0.027 | inactive: -0.021 |  | inactive: -0.024 | inactive: -0.049 |  | inactive: 0.015 | inactive: -0.045
PMM2 (UniProt O15305) | inactive: -0.03 | inactive: -0.021 | inactive: 0.026 | inactive: -0.021 |  | inactive: -0.002 | inactive: -0.049 |  | inactive: -0.076 | inactive: -0.049
POLA1 (UniProt P09884) | inactive: -0.048 | active: -0.466 | inactive: 0.059 | inactive: 0.045 |  | inactive: -0.089 | inactive: 0.032 |  | inactive: -0.012 | inactive: -0.163
POP1 (UniProt Q99575) | inactive: 0.069 | inactive: 0.092 | inactive: 0.02 | inactive: -0.001 |  | inactive: 0.028 | inactive: -0.019 |  | inactive: -0.009 | inactive: 0.075
POLR2E (UniProt P19388) | inactive: 0.027 | inactive: -0.067 | inactive: 0.018 | inactive: 0.065 |  | inactive: 0.015 | inactive: 0.034 |  | inactive: 0.092 | inactive: 0.09
POLR2G (UniProt P62487) | inactive: 0.215 | inactive: 0.276 | inactive: -0.075 | inactive: 0.054 |  | inactive: -0.003 | inactive: 0.02 |  | inactive: 0.002 | inactive: 0.081
POLR2A (UniProt P24928) | inactive: 0.093 | inactive: -0.034 | inactive: 0.006 | inactive: 0.004 |  | inactive: 0.022 | inactive: 0.041 |  | inactive: -0.052 | inactive: 0.156
POLR2M (UniProt P0CAP2) | inactive: 0.084 | inactive: 0.026 | inactive: 0.013 | inactive: -0.018 |  | inactive: 0.034 | inactive: 0.004 |  | inactive: -0.028 | inactive: 0.037
POLR1A (UniProt O95602) | inactive: 0.059 | inactive: 0.071 | inactive: -0.26 | inactive: -0.037 |  | inactive: -0.066 | inactive: -0.086 |  | inactive: 0.056 | inactive: 0.054

Quoted at random: 2 entries already listed, in no set order.
Target | log2 fold change [1] | log2 fold change (volasertib) | log2 fold change [2] | log2 fold change (epoxomicin) | log2 fold change [3] | log2 fold change [4] | log2 fold change [5] | log2 fold change (rosiglitazone) | log2 fold change [6] | log2 fold change [7]
POMP (UniProt Q9Y244) | inactive: 0.097 | inactive: -0.049 | inactive: 0.008 | active: 0.581 |  | inactive: 0.021 | inactive: -0.018 |  | inactive: -0.02 | inactive: -0.004
PPAT (UniProt Q06203) | inactive: 0.028 | inactive: 0.058 | inactive: -0.02 | inactive: -0.012 | inactive: 0.006 | inactive: -0.01 | inactive: -0.016 | inactive: 0.019 | inactive: -0.062 | inactive: 0.018
